Test results from paper PMC2702278.

Sequences of proteins named here, by UniProt entry; tags and fusion partners are left off.
UniProt Q99700: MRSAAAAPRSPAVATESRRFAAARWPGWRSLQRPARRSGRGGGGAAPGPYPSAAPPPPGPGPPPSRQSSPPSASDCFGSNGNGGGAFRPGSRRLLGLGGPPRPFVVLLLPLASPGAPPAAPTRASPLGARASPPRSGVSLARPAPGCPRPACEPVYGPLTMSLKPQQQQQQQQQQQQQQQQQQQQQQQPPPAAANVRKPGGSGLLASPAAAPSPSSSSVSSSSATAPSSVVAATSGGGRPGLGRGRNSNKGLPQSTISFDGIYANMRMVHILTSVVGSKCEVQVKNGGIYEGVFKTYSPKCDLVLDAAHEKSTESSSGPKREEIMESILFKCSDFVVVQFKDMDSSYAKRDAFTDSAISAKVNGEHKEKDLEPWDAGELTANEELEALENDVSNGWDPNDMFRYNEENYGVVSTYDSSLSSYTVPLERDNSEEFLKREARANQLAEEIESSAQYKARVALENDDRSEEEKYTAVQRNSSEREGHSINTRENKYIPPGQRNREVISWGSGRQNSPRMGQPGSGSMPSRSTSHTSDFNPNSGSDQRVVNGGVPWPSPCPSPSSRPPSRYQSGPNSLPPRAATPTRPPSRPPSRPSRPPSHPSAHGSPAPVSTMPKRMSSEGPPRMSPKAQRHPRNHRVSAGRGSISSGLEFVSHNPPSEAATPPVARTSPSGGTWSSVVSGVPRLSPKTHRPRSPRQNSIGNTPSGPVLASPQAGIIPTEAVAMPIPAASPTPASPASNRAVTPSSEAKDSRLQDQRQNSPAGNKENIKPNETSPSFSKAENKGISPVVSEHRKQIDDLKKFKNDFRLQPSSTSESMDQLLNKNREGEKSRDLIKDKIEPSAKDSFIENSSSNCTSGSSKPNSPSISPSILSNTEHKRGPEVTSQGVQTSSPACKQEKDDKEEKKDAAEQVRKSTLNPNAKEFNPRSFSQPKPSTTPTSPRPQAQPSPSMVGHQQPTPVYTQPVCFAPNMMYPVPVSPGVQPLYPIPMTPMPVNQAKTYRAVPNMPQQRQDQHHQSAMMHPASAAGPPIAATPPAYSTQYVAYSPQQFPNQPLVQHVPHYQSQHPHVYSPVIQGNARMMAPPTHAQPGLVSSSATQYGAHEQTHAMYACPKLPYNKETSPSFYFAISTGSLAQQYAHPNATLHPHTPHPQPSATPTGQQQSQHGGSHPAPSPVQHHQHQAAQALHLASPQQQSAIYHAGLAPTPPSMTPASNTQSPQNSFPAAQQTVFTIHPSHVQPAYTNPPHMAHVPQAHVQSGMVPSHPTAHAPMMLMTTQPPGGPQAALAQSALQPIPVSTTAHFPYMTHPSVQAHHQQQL
UniProt Q70E73: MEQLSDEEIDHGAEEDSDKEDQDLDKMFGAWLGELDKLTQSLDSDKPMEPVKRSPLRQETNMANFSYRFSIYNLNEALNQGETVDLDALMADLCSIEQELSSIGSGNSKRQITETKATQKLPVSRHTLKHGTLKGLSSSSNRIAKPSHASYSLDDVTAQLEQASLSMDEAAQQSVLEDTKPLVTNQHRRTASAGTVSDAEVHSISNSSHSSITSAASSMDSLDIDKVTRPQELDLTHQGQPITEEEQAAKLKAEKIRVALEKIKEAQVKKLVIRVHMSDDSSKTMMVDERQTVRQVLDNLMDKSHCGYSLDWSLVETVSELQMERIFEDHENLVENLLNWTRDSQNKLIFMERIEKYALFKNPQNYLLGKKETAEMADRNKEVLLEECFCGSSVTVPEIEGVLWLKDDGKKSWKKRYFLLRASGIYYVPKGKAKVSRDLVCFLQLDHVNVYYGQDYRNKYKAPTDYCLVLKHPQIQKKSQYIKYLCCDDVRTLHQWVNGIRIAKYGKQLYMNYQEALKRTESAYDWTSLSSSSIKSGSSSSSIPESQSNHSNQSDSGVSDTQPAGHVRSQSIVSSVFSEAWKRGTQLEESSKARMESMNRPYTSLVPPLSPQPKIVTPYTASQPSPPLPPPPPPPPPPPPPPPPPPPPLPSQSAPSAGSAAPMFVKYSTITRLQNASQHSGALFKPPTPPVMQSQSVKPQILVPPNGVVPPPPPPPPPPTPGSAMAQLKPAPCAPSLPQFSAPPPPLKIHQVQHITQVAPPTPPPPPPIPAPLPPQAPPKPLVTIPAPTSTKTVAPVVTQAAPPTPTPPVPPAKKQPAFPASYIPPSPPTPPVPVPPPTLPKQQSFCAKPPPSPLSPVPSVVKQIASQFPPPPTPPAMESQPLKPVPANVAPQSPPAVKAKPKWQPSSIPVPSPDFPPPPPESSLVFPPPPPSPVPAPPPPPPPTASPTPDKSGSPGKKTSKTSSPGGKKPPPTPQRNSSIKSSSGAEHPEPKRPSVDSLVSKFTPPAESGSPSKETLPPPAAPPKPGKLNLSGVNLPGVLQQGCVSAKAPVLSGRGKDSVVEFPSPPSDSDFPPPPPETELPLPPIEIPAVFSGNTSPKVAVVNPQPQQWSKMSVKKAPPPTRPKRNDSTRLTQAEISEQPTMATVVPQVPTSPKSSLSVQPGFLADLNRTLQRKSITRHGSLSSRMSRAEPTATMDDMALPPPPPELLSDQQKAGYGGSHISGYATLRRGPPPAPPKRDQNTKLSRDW
UniProt Q8IU81: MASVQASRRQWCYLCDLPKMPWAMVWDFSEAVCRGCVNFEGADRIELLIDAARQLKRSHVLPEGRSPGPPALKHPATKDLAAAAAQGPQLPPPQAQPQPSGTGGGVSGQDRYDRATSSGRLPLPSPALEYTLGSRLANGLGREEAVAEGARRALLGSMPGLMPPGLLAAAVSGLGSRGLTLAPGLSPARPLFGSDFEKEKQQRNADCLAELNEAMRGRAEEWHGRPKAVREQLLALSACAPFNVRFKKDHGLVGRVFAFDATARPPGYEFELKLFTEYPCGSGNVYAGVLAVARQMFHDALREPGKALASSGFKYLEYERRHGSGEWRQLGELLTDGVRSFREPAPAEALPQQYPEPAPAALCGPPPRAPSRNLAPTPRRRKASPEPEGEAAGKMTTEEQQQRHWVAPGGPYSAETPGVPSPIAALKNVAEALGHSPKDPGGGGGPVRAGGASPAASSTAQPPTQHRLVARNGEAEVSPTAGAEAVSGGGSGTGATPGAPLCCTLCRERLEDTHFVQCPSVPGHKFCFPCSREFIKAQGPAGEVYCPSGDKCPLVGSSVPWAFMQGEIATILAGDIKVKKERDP
UniProt Q9BSJ2: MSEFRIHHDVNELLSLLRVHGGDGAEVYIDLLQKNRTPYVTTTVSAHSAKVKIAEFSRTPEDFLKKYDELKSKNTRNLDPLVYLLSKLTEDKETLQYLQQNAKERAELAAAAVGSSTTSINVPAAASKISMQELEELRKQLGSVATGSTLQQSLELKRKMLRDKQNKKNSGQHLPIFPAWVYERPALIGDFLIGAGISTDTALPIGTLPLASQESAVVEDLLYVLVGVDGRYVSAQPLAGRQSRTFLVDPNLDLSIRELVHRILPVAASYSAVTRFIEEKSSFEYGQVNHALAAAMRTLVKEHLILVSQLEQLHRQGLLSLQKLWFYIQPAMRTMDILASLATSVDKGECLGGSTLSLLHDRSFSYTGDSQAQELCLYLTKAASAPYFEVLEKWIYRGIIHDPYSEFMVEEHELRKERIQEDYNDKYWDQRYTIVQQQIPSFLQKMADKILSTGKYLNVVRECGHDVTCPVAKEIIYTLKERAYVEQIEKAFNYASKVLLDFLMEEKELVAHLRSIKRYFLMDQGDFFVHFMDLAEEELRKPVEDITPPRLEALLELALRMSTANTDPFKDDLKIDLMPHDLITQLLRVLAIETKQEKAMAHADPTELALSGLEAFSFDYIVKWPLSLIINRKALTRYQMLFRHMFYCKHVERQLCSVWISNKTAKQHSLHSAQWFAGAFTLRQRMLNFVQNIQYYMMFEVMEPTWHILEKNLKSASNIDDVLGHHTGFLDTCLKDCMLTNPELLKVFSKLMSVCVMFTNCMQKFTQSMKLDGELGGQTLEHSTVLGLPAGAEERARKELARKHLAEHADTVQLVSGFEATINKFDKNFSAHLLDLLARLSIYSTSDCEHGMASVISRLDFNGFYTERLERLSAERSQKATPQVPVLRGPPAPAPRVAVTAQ
UniProt Q96CW5: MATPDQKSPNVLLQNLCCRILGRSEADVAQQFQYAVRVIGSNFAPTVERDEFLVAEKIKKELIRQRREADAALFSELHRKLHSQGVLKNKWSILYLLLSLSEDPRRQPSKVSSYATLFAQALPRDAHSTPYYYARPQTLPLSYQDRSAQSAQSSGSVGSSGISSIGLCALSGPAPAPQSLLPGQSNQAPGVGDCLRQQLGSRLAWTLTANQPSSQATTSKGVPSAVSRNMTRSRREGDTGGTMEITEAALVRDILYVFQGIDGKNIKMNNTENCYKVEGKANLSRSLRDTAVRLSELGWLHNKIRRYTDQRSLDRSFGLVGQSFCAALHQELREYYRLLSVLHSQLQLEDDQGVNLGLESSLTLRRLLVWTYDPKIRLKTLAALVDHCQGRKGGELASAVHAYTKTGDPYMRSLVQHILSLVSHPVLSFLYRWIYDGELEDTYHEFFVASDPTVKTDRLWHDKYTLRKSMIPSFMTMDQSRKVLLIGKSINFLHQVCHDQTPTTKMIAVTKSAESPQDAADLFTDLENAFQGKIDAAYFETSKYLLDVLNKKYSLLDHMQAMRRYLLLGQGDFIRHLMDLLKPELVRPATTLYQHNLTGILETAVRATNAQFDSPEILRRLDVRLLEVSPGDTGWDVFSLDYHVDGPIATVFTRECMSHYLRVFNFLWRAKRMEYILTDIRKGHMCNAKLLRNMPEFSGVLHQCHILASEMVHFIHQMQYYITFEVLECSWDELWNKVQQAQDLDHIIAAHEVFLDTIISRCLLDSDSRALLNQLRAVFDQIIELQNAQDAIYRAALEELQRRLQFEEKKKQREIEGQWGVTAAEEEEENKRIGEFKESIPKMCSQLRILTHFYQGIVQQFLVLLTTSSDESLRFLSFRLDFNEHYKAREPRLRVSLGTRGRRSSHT

B1: RASAL2 (protein, UniProt Q9UJF2 1-1139)
chain: MQTPEVPAERSPRRRSISGTSTSEKPNSMDTANTSPFKVPGFFSKRLKGSIKRTKSQSKLDRNTSFRLPSLRSTDDRSRGLPKLKESRSHESLLSPCSTVECLDLGRGEPVSVKPLHSSILGQDFCFEVTYLSGSKCFSCNSASERDKWMENLRRTVQPNKDNCRRAENVLRLWIIEAKDLAPKKKYFCELCLDDTLFARTTSKTKADNIFWGEHFEFFSLPPLHSITVHIYKDVEKKKKKDKNNYVGLVNIPTASVTGRQFVEKWYPVSTPTPNKGKTGGPSIRIKSRFQTITILPMEQYKEFAEFVTSNYTMLCSVLEPVISVRNKEELACALVHILQSTGRAKDFLTDLVMSEVDRCGEHDVLIFRENTIATKSIEEYLKLVGQQYLHDALGEFIKALYESDENCEVDPSKCSSSELIDHQSNLKMCCELAFCKIINSYCVFPRELKEVFASWKQQCLNRGKQDISERLISASLFLRFLCPAIMSPSLFNLMQEYPDDRTSRTLTLIAKVIQNLANFAKFGNKEEYMAFMNDFLEHEWGGMKRFLLEISNPDTISNTPGFDGYIDLGRELSVLHSLLWEVVSQLDKGENSFLQATVAKLGPLPRVLADITKSLTNPTPIQQQLRRFTEHNSSPNVSGSLSSGLQKIFEDPTDSDLHKLKSPSQDNTDSYFRGKTLLLVQQASSQSMTYSEKDERESSLPNGRSVSLMDLQDTHAAQVEHASVMLDVPIRLTGSQLSITQVASIKQLRETQSTPQSAPQVRRPLHPALNQPGGLQPLSFQNPVYHLNNPIPAMPKASIDSSLENLSTASSRSQSNSEDFKLSGPSNSSMEDFTKRSTQSEDFSRRHTVPDRHIPLALPRQNSTGQAQIRKVDQGGLGARAKAPPSLPHSASLRSTGSMSVVSAALVAEPVQNGSRSRQQSSSSRESPVPKVRAIQRQQTQQVQSPVDSATMSPVERTAAWVLNNGQYEEDVEETEQNLDEAKHAEKYEQEITKLKERLRVSSRRLEEYERRLLVQEQQMQKLLLEYKARLEDSEERLRRQQEEKDSQMKSIISRLMAVEEELKKDHAEMQAVIDAKQKIIDAQEKRIVSLDSANTRLMSALTQVKERYSMQVRNGISPTNPTKLSITENGEFKNSSC
B2: PEPP-2 (protein, UniProt Q9HAU0 1-1116)
chain: MAADLNLEWISLPRSWTYGITRGGRVFFINEEAKSTTWLHPVTGEAVVTGHRRQSTDLPTGWEEAYTFEGARYYINHNERKVTCKHPVTGQPSQDNCIFVVNEQTVATMTSEEKKERPISMINEASNYNVTSDYAVHPMSPVGRTSRASKKVHNFGKRSNSIKRNPNAPVVRRGWLYKQDSTGMKLWKKRWFVLSDLCLFYYRDEKEEGILGSILLPSFQIALLTSEDHINRKYAFKAAHPNMRTYYFCTDTGKEMELWMKAMLDAALVQTEPVKRVDKITSENAPTKETNNIPNHRVLIKPEIQNNQKNKEMSKIEEKKALEAEKYGFQKDGQDRPLTKINSVKLNSLPSEYESGSACPAQTVHYRPINLSSSENKIVNVSLADLRGGNRPNTGPLYTEADRVIQRTNSMQQLEQWIKIQKGRGHEEETRGVISYQTLPRNMPSHRAQIMARYPEGYRTLPRNSKTRPESICSVTPSTHDKTLGPGAEEKRRSMRDDTMWQLYEWQQRQFYNKQSTLPRHSTLSSPKTMVNISDQTMHSIPTSPSHGSIAAYQGYSPQRTYRSEVSSPIQRGDVTIDRRHRAHHPKHVYVPDRRSVPAGLTLQSVSPQSLQGKTLSQDEGRGTLYKYRPEEVDIDAKLSRLCEQDKVVHALEEKLQQLHKEKYTLEQALLSASQEIEMHADNPAAIQTVVLQRDDLQNGLLSTCRELSRATAELERAWREYDKLEYDVTVTRNQMQEQLDHLGEVQTESAGIQRAQIQKELWRIQDVMEGLSKHKQQRGTTEIGMIGSKPFSTVKYKNEGPDYRLYKSEPELTTVAEVDESNGEEKSEPVSEIETSVVKGSHFPVGVVPPRAKSPTPESSTIASYVTLRKTKKMMDLRTERPRSAVEQLCLAESTRPRMTVEEQMERIRRHQQACLREKKKGLNVIGASDQSPLQSPSNLRDNPFRTTQTRRRDDKELDTAIRENDVKPDHETPATEIVQLKETEPQNVDFSKELKKTENISYEMLFEPEPNGVNSVEMMDKERNKDKMPEDVTFSPQDETQTANHKPEEHPEENTKNSVDEQEETVISYESTPEVSRGNQTMAVKSLSPSPESSASPVPSTQPQLTEGSHFMCV
B3: 3BP-2 (protein, UniProt P78314 1-561)
chain: MAAEEMHWPVPMKAIGAQNLLTMPGGVAKAGYLHKKGGTQLQLLKWPLRFVIIHKRCVYYFKSSTSASPQGAFSLSGYNRVMRAAEETTSNNVFPFKIIHISKKHRTWFFSASSEEERKSWMALLRREIGHFHEKKDLPLDTSDSSSDTDSFYGAVERPVDISLSPYPTDNEDYEHDDEDDSYLEPDSPEPGRLEDALMHPPAYPPPPVPTPRKPAFSDMPRAHSFTSKGPGPLLPPPPPKHGLPDVGLAAEDSKRDPLCPRRAEPCPRVPATPRRMSDPPLSTMPTAPGLRKPPCFRESASPSPEPWTPGHGACSTSSAAIMATATSRNCDKLKSFHLSPRGPPTSEPPPVPANKPKFLKIAEEDPPREAAMPGLFVPPVAPRPPALKLPVPEAMARPAVLPRPEKPQLPHLQRSPPDGQSFRSFSFEKPRQPSQADTGGDDSDEDYEKVPLPNSVFVNTTESCEVERLFKATSPRGEPQDGLYCIRNSSTKSGKVLVVWDETSNKVRNYRIFEKDSKFYLEGEVLFVSVGSMVEHYHTHVLPSHQSLLLRHPYGYTGPR
B4: 9G8 (protein, UniProt Q16629 1-238)
chain: MSRYGRYGGETKVYVGNLGTGAGKGELERAFSYYGPLRTVWIARNPPGFAFVEFEDPRDAEDAVRGLDGKVICGSRVRVELSTGMPRRSRFDRPPARRPFDPNDRCYECGEKGHYAYDCHRYSRRRRSRSRSRSHSRSRGRRYSRSRSRSRGRRSRSASPRRSRSISLRRSRSASLRRSRSGSIKGSRYFQSPSRSRSRSRSISRPRSSRSKSRSPSPKRSRSPSGSPRRSASPERMD
B5: Plakophilin 3 (protein, UniProt Q9Y446 1-797)
chain: MQDGNFLLSALQPEAGVCSLALPSDLQLDRRGAEGPEAERLRAARVQEQVRARLLQLGQQPRHNGAAEPEPEAETARGTSRGQYHTLQAGFSSRSQGLSGDKTSGFRPIAKPAYSPASWSSRSAVDLSCSRRLSSAHNGGSAFGAAGYGGAQPTPPMPTRPVSFHERGGVGSRADYDTLSLRSLRLGPGGLDDRYSLVSEQLEPAATSTYRAFAYERQASSSSSRAGGLDWPEATEVSPSRTIRAPAVRTLQRFQSSHRSRGVGGAVPGAVLEPVARAPSVRSLSLSLADSGHLPDVHGFNSYGSHRTLQRLSSGFDDIDLPSAVKYLMASDPNLQVLGAAYIQHKCYSDAAAKKQARSLQAVPRLVKLFNHANQEVQRHATGAMRNLIYDNADNKLALVEENGIFELLRTLREQDDELRKNVTGILWNLSSSDHLKDRLARDTLEQLTDLVLSPLSGAGGPPLIQQNASEAEIFYNATGFLRNLSSASQATRQKMRECHGLVDALVTSINHALDAGKCEDKSVENAVCVLRNLSYRLYDEMPPSALQRLEGRGRRDLAGAPPGEVVGCFTPQSRRLRELPLAADALTFAEVSKDPKGLEWLWSPQIVGLYNRLLQRCELNRHTTEAAAGALQNITAGDRRWAGVLSRLALEQERILNPLLDRVRTADHHQLRSLTGLIRNLSRNARNKDEMSTKVVSHLIEKLPGSVGEKSPPAEVLVNIIAVLNNLVVASPIAARDLLYFDGLRKLIFIKKKRDSPDSEKSSRAASSLLANLWQYNKLHRDFRAKGYRKEDFLGP

These molecules were tested against GST-fusion SH3C domain of Ruk/CIN85 (UniProt Q96B97) (assay: affinity purification with mass spectrometry; GST-fusion SH3 domain (about 10 μg on 40 μl Glutathione Sepharose 4B) incubated 4 h at 4°C with HeLa lysate pre-cleared on GST beads; 20 mM Tris pH 7.5, 150 mM NaCl, 5 mM EDTA, 5% glycerol, 0.5% Triton X-100 (washes 0.1%); SDS-PAGE, in-gel trypsin digestion, LC-MS/MS; hits also found with GST alone removed; only the target purified).

binding, binds:
B1, B2

What follows are molecules tested against GST-fusion SH3A domain of Ruk/CIN85 (UniProt Q96B97) in the same assay as above.

binding, binds:
CFBP (from UniProt Q96EY5 1-273), Atx2 (from UniProt Q99700 1-1313), Lamellipodin (from UniProt Q70E73 1-1250), IRF2-BP1 (from UniProt Q8IU81 1-584), GCP2 (from UniProt Q9BSJ2 1-902), GCP3 (from UniProt Q96CW5 1-907), B3, B4, B5

These are yes or no findings as the source states them, for the method shown. In cells and extracts the contact can be indirect. A yes stands for co-enrichment or nearness to the bait. Other partners may have been found.
